Measurements taken from US8653049B2, “Normuramyl glycopeptide compounds” (priority 2008, dated 2014).

Test system: Trichophyton mentagrophytes TM 179
Test: Adjuvant activity for hsp60 DNA vaccine against ringworm
Format: in vivo, guinea pigs
Conditions: skin lesion sample day 8

Measured: Results of cultivation Day 13

CCCCCCCCCCCCCCC(CCCCCCCCCCCCCC)C(=O)OC[C@H]1OC(O)[C@H](NC(C)=O)[C@@H](OCC(=O)N[C@@H](CC)C(=O)N[C@H](CCC(=O)O)C(N)=O)[C@@H]1O (stereo partly shown) [B30-norAbu-MDP]
Positive: group 1: 200 μg adjuvant at −48 h + 20 μg DNA | group 2: 200 μg adjuvant at −24 h + 20 μg DNA | group 3: 200 μg adjuvant at 0 h + 20 μg DNA | group 4: 200 μg adjuvant at +24 h + 20 μg DNA
